Assay results reported in article PMC2789382.
Results are given in words; binding and its absence hold for the method and conditions named. Binding seen in cells or lysates may run through a third protein. Some binding calls cover weakened binding; strength is not graded here.

Chains of the proteins cited; added tags and fusions are not shown.
UniProt P35222: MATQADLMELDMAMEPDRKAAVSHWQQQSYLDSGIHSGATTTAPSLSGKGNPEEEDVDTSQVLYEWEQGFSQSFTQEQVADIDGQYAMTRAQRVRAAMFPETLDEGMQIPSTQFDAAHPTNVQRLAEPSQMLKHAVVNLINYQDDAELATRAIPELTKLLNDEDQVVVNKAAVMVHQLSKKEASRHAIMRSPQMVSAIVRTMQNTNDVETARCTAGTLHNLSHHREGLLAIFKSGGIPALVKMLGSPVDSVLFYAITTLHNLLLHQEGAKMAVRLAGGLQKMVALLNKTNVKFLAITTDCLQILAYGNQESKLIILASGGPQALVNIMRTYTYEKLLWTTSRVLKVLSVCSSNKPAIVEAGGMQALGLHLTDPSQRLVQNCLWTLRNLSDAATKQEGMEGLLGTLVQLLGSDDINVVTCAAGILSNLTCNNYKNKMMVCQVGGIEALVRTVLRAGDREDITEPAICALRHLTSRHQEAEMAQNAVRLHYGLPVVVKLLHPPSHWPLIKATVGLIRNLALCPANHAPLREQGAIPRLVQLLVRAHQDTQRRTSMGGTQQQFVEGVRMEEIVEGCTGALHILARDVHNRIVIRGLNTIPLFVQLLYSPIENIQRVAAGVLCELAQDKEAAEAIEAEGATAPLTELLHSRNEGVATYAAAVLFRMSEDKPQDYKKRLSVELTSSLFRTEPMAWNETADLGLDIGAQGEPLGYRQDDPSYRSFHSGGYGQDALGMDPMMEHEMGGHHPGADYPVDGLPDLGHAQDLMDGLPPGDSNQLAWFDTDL
UniProt Q9UJU2: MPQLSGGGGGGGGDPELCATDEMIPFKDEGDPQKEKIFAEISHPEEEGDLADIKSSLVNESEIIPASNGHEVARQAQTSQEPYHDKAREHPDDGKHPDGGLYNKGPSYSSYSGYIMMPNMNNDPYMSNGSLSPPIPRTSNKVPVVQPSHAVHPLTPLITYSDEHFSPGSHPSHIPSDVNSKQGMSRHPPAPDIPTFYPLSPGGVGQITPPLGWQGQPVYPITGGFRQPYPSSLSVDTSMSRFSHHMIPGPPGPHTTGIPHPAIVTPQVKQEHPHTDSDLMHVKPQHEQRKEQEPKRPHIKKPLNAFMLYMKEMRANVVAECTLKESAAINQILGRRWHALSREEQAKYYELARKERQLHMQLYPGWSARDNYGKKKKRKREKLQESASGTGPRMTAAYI

Biological target: β-catenin (human (endogenous in SW480)) (UniProt P35222)
Experiment: co-IP; SW480 cells, untreated or treated with EA (50 µM or increasing amounts) for 16 h; lysates (20 mM Tris-HCl pH 8.0, 10% glycerol, 5 mM MgCl2, 0.15 M KCl, 0.1% NP-40) incubated overnight at 4°C with agarose beads linked to anti-β-catenin monoclonal antibody; immunoblot

Substance: LEF-1 (from UniProt Q9UJU2 1-399)
- binding: binds
